Test results as given in EP4633740A2.
Residue numbers refer to the chain shown, from its start. These are yes or no findings as the source states them, for the method shown. Some binding calls cover weakened binding; strength is not graded here.

Protein sequences, listed by entry. Tags and fused reporters are not part of them. Lines headed by an entry give the natural chain unless they say otherwise; changes in a name come on top.
UniProt P06756: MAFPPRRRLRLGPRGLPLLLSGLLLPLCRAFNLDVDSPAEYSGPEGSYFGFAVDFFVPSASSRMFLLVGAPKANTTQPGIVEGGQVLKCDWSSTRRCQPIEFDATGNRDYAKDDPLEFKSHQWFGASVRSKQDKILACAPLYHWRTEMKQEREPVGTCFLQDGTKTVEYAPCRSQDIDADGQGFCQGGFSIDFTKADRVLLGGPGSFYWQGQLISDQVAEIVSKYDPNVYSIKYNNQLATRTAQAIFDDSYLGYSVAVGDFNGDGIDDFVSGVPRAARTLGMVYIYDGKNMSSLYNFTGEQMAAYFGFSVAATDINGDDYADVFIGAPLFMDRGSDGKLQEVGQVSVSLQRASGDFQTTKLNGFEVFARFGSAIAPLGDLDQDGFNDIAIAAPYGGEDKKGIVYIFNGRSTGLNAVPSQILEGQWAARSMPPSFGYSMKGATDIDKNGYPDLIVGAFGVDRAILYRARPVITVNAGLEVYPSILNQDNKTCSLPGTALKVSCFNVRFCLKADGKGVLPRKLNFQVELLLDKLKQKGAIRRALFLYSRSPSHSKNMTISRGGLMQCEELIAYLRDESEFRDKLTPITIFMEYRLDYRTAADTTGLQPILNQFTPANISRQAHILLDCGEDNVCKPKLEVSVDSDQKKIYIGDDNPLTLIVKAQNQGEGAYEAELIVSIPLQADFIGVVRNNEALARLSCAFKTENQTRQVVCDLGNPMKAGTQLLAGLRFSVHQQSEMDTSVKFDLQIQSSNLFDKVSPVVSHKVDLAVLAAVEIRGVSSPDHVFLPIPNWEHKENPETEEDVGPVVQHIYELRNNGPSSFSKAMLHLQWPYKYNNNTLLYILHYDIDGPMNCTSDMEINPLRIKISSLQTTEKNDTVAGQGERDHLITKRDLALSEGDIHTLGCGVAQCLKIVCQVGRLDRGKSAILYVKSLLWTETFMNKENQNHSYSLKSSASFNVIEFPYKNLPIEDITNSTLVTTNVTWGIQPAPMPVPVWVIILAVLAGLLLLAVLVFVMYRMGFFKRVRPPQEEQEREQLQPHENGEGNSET

B1: SEQ ID NO 1 (VHH)
VHH: QVQLQESGGGLVQAGGSLRLSCAASGSIFSINAMGWYRQAPGNQREMVALITSGSNTAYPDSVKGRFTISRDNAENTFYLQMNSLKPEDTAVYYCSANIYVDSYHYTTYWGQGTQVTVSS
B2: SEQ ID NO 10 (VHH)
VHH: QVQLQESGGGNVQAGGSLRLSCAASGSIFFINTMGWYRQAPGNQRELVAHITSGNSTSYPDSTKGRFTISRDNAENTFYLQMNSLKPEDTAVYYCYANIYGDSSHYTTYWGQGTQVTVSS
B3: SEQ ID NO 11 (VHH)
VHH: B1 VHH with N32D, M47L, L50H, T52I, S55N, N56S, S96Y, V101S, H105R, Y109H
B4: SEQ ID NO 12 (VHH)
VHH: B1 VHH with S27T, G35A, E46D, L50H, S55G, N56S, A58N, V101R
B5: SEQ ID NO 13 (VHH)
VHH: B1 VHH with G16D, I31N, M47L, S55G, N56S, A58N, V101I, H105R
B6: SEQ ID NO 14 (VHH)
VHH: B1 VHH with L50H, S53G, S55G, N56S, T57G, T77M, V101R, H105R
B7: SEQ ID NO 15 (VHH)
VHH: B2 VHH with N11L, F30S, N32D, T33A, T52I, S58A, T63V, G101S, H105R
B8: SEQ ID NO 16 (VHH)
VHH: B1 VHH with M47L, L50H, S55D, S96Y, V101G, Y104N
B9: SEQ ID NO 17 (VHH)
VHH: QVQLQESGGGLVQAGGSLRLSCAASGSIFSMNAMGWYRQAPGNQHELVAHIISGGSGNYPDSVKGRFTISKDNAENTFYLQMNSLKPEDTAVYYCYANIYGDKDRYTTYWGQGTQVTVSS
B10: SEQ ID NO 18 (VHH)
VHH: QVQLQESGGGLVQPGGSLRLSCAASGSIFSIDAMGWYRQGPGNQRELVAHITSGGSTSYIDSVKGRFTISRDNAENTFYLQMNSLKPEDTAVYYCSANIYGDSYRYTTYWGRGTQVTVSS
B11: SEQ ID NO 19 (VHH)
VHH: B1 VHH with A14P, I28S, F29S, G35A, E46D, L50H, S55G, N56S, A58N, V101R
B12: SEQ ID NO 2 (VHH)
VHH: B9 VHH with H45R, L47I, S53G, G57T, R105H
B13: SEQ ID NO 20 (VHH)
VHH: B10 VHH with L11T, P14I, G40A, S58A, I60P, R112Q
B14: SEQ ID NO 21 (VHH)
VHH: B2 VHH with N11L, G16E, F30S, N32D, T33A, T52I, S58A, T63V, G101S, H105R
B15: SEQ ID NO 22 (VHH)
VHH: B1 VHH with N32D, M47L, L50H, N56S, T57A, A58N, N83D, S96Y, V101S, Y104F
B16: SEQ ID NO 23 (VHH)
VHH: B2 VHH with N11L, F30S, I31M, T33A
B17: SEQ ID NO 24 (VHH)
VHH: QVQLQESGGGLVQAGGSLRLSCAASGSIFSIDAMGWYRQAPGNQRELVAHIISGNSTAYPDSVKGRFTISRDNAENTSYLQMNSLKPEDTAVYYCYANIYSDSYRYTTHWGQGTQVTVSS
B18: SEQ ID NO 25 (VHH)
VHH: QVQLQESGGGLVQTGGSLRLSCAASGSIFSIDAMGWYRQAPGDQRELVAHMSTHGTTNYPDSVKGRFTISRDNAENTFYLQMNSLKPEDTAVYYCSANIYVDSYRYTTYWGQGTQVTVSS
B19: SEQ ID NO 26 (VHH)
VHH: B9 VHH with H45R
B20: SEQ ID NO 27 (VHH)
VHH: QVQLQESGGGLVQAGGSLELSCAASGIIPSLDEMSWYRQAPGNQRELVAHITSGGSTAYPDSVKGRFTISRDNAENTFYLQMNSLKPEDTAVYYCSANIYGDSYRYTTYWGQGTQVTVSS
B21: SEQ ID NO 28 (VHH)
VHH: B17 VHH with S78F, S101V, H109Y
B22: SEQ ID NO 29 (VHH)
VHH: B2 VHH with N11L, A23T, F30S, I31M, T33A, N55D
B23: SEQ ID NO 3 (VHH)
VHH: B10 VHH with P14A, G40A, S58A, I60P, R112Q
B24: SEQ ID NO 30 (VHH)
VHH: B10 VHH with G40A, S58A, I60P, R112Q
B25: SEQ ID NO 32 (VHH)
VHH: B17 VHH with A14P, I31M, D32N, I52T, S56N, T57A, A58N, S78F, S101A, H109Y
B26: SEQ ID NO 33 (VHH)
VHH: B1 VHH with M47L, L50H, S55D, S96Y, V101A, H105R
B27: SEQ ID NO 34 (VHH)
VHH: QVQLQESGGGLVQAGETLGLSCVVSGNIRRFDSMGWYRQAPGKSREMVALITSGSNTAYPDSVKGRFTISRDNAENTFYLQMNSLKPEDTAVYYCSANIYVDSYHYTTYWGQGTQVTVSS
B28: SEQ ID NO 35 (VHH)
VHH: B17 VHH with I31M, D32N, I52T, S56N, T57A, A58N, S78F, S101A, H109Y
B29: SEQ ID NO 36 (VHH)
VHH: QVQLQESGGGLVQTGGSLRLACAASVSIASINFIGWYRQAPGNQREWVATVSSGDGTNYADSVKGRFTISRDNAKNTVYLQMNSLEPEDTAVYYCNVKQRGTYWGQGTQVTVSS
B30: SEQ ID NO 37 (VHH)
VHH: B29 VHH with T14A, E86K
B31: SEQ ID NO 38 (VHH)
VHH: B29 VHH with Q39R, E86K
B32: SEQ ID NO 39 (VHH)
VHH: B29 VHH with E86K

target: human ITGAV/ITGB6 dimer protein (human) (UniProt P06756); assay: colorimetric ELISA, periplasmic extracts

binding, binds:
B1, B2, B3, B4, B5, B6, B7, B8, B9, B10, B11, B12, B13, B14, B15, B16, B17, B18, B19, B20, B21, B22, B23, B24, B25, B26, B27, B28, B29, B30, B31, B32
